From the supplement of paper PMC12823440, “Inhibitors supercharge kinase turnover through native proteolytic circuits” (Nature, 2025)
The list shows a part of the results. Hit calls seldom repeat between salt and free forms of one compound.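 In K562 cells expressing nanoluciferase-fused kinases, luminescence was recorded at 4 h intervals between 2 and 18 h, normalized as percent of control with DMSO at 100% and a positive control at 0%. A significant (2 sigma) signal drop marks a time point as decreased. The authors' rule for a hit is not shown and takes in more than the number of time points.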

The chains behind the UniProt entries cited, without tags or fusion partners. Where a name states a change or a piece, a line headed by the entry shows the natural chain unless it says otherwise.
UniProt P07949, whole entry, looked up: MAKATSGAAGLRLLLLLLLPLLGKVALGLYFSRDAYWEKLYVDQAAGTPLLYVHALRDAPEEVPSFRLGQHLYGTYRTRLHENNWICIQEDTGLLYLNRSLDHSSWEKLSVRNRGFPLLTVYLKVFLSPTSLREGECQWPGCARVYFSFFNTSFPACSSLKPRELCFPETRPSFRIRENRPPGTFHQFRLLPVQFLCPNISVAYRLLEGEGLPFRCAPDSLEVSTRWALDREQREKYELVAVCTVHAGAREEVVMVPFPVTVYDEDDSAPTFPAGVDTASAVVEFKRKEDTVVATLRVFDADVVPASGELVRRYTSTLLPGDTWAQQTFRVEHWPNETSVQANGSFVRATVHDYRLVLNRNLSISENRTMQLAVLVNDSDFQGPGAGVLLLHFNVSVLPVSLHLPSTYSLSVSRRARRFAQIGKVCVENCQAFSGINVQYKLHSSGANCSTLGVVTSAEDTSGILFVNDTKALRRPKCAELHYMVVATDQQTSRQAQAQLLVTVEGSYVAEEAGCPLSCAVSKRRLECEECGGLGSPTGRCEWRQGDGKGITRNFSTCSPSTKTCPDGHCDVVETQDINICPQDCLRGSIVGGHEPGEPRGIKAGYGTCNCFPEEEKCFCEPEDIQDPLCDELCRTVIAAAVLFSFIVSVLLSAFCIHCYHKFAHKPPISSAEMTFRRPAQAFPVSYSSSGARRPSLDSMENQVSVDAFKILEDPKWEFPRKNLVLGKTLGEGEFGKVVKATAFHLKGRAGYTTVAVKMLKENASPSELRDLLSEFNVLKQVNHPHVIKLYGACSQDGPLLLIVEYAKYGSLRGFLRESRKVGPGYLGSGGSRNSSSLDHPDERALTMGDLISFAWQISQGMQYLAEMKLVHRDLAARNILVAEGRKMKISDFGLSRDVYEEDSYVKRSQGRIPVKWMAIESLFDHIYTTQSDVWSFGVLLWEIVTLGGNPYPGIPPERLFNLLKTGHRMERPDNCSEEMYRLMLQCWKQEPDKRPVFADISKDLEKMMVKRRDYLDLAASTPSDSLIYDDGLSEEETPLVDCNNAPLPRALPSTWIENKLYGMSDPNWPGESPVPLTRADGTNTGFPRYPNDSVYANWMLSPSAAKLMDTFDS
UniProt P07949, whole entry M918T, looked up: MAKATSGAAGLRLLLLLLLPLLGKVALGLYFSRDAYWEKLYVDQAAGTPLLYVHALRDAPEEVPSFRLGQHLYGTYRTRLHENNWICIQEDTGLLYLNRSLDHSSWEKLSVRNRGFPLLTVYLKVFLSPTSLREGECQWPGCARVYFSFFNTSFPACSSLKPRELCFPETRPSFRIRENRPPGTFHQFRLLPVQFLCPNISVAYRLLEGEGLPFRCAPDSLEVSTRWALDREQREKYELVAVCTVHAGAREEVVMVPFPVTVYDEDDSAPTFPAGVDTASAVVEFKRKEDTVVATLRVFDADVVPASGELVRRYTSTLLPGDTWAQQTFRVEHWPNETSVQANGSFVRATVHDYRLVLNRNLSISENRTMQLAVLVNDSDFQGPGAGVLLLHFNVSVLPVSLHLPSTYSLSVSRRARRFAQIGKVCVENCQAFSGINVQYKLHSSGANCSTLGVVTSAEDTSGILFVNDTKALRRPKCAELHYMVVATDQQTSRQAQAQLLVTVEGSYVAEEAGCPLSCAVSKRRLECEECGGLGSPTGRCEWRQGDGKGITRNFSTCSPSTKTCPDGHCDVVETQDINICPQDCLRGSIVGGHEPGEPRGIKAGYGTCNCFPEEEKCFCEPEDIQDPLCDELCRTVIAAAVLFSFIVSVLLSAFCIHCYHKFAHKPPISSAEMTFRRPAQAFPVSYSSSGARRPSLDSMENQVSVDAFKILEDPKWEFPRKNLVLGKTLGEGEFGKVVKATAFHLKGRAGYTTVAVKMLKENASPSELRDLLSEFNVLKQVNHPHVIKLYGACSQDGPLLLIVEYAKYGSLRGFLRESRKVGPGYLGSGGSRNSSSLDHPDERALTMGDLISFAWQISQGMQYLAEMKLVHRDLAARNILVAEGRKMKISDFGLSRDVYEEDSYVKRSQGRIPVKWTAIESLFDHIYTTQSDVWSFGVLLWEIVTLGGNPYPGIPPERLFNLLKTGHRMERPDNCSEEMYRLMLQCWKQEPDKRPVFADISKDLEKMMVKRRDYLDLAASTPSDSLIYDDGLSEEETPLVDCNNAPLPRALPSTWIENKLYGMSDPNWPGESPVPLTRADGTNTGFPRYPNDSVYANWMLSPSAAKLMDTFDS
UniProt Q13546: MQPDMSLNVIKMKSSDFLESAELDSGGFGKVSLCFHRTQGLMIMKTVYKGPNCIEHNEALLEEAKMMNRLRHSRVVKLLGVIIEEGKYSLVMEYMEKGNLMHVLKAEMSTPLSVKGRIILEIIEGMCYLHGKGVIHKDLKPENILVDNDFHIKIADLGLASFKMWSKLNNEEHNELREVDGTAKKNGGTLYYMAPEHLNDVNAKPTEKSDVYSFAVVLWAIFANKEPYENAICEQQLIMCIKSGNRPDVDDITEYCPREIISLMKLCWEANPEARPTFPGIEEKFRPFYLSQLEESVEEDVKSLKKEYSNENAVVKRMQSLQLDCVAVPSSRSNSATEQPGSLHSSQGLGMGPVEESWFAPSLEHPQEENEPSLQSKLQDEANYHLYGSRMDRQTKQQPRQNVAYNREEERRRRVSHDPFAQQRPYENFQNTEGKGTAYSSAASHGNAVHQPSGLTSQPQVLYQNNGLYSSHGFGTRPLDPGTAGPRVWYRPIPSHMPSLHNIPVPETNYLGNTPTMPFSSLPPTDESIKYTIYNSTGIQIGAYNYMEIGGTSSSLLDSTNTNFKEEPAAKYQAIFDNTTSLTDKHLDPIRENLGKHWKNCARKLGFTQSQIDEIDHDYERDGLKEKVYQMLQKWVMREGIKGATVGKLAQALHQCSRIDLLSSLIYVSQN
UniProt Q01974, whole entry: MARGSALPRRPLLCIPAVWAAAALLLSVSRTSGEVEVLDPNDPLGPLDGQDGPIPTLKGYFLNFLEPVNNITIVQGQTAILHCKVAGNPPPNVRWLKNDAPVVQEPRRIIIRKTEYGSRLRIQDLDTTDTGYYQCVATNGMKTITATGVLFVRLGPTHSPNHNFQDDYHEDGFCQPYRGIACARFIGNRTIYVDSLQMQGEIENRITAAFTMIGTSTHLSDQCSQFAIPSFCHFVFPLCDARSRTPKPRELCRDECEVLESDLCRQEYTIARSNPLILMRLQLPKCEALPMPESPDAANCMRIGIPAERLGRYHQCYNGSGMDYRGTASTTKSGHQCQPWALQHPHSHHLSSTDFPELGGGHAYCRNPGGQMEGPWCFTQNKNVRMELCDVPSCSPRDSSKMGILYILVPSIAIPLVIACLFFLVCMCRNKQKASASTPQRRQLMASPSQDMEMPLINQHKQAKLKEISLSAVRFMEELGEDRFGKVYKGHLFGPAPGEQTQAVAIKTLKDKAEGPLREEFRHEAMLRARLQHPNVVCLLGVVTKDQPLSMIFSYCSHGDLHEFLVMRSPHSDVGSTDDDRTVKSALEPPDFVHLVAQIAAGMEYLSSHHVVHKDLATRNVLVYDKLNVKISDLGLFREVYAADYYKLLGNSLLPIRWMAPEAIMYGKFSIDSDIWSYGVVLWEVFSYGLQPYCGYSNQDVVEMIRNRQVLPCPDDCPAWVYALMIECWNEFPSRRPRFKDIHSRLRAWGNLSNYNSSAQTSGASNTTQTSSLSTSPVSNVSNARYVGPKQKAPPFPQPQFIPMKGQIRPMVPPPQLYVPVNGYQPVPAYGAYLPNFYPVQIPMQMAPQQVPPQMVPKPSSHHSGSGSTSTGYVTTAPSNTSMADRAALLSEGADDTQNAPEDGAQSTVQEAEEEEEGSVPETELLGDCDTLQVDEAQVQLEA
UniProt Q15418, whole entry: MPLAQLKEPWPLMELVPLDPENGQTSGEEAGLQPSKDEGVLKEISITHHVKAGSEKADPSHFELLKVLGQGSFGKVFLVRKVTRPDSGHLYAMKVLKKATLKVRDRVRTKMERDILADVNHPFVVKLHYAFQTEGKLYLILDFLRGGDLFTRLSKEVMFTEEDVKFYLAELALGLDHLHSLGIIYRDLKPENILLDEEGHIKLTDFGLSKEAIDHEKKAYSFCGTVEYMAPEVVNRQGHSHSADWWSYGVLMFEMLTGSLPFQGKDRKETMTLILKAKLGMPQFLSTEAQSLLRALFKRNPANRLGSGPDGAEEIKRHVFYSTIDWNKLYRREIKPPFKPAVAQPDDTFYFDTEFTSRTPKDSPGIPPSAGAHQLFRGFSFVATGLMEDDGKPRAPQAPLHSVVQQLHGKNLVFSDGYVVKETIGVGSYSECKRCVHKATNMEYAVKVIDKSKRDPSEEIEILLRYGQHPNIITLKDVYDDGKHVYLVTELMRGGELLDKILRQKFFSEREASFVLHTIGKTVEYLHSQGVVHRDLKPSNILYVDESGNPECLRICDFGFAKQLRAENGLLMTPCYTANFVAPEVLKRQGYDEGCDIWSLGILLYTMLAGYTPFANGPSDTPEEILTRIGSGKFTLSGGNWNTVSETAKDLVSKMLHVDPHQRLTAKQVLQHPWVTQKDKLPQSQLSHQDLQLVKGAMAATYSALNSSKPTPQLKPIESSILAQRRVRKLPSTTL
UniProt P29597: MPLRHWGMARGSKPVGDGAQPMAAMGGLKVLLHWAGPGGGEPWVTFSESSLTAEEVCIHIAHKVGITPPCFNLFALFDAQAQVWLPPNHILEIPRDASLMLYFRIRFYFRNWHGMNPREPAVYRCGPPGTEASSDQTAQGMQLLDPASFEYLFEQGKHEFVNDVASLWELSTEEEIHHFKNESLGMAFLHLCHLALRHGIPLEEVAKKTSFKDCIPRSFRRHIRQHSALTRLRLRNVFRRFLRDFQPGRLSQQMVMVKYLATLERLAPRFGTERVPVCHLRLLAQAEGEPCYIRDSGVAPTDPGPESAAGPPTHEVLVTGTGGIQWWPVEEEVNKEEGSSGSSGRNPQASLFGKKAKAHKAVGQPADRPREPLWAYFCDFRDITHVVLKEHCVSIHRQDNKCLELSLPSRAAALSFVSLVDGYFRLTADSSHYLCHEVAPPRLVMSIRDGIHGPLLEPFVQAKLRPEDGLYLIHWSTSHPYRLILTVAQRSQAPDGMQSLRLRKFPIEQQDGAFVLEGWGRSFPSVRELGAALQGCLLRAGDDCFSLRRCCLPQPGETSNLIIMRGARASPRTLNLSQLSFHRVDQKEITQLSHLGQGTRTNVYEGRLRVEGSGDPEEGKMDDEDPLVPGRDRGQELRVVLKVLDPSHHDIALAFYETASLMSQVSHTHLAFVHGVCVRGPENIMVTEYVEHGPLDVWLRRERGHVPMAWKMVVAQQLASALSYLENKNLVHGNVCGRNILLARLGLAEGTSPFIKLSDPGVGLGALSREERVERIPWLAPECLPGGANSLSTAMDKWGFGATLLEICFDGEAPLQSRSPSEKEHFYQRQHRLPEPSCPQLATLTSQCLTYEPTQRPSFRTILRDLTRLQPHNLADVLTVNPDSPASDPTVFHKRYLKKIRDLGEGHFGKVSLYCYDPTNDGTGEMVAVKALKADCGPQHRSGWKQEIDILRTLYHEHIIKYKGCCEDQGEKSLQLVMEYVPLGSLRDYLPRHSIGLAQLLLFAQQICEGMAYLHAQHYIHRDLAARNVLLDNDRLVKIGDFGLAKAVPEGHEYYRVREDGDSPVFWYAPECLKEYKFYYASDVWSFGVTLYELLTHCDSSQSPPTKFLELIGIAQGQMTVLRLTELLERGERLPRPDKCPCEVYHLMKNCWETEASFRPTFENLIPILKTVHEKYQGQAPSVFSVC
UniProt P43403: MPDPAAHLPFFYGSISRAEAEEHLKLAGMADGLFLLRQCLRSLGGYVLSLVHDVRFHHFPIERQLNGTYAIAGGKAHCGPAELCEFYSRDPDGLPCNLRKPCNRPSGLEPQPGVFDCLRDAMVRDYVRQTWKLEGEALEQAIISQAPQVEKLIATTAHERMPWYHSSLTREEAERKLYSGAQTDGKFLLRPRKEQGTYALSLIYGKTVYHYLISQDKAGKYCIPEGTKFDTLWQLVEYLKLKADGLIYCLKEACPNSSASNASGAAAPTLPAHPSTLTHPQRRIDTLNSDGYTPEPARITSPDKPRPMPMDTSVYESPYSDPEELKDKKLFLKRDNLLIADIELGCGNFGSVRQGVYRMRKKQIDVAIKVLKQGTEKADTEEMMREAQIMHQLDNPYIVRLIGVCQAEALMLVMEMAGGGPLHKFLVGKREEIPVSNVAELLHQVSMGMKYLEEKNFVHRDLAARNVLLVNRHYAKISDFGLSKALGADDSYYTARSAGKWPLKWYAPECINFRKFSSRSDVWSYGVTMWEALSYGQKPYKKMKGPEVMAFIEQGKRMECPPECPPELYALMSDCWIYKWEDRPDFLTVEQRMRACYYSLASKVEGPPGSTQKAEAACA

Assays:
Conditions in all cases: K562, 2-18 h
[1] = target: RET (UniProt P07949); test: kinase-Nluc reporter destabilization hit call (1 = scored as downregulated) (binary); higher = compound decreases kinase abundance
[2] = target: RET_M918T (clone: RET_mut) (UniProt P07949); test: as above
[3] = target: RIOK1 (UniProt Q9BRS2); test: as above
[4] = target: RIPK1 (UniProt Q13546); test: as above
[5] = target: RIPK2 (UniProt O43353); test: as above
[6] = target: ROR2 (UniProt Q01974); test: as above
[7] = target: RPS6KA1 (UniProt Q15418); test: as above
[8] = target: SPHK1 (UniProt Q9NYA1); test: as above
[9] = target: SRC (UniProt P12931); test: as above
[10] = target: STK24 (UniProt Q9Y6E0); test: as above
[11] = target: STK38 (UniProt Q15208); test: as above
[12] = target: SYK (UniProt P43405); test: as above
[13] = target: TEC (UniProt P42680); test: as above
[14] = target: TYK2 (UniProt P29597); test: as above
[15] = target: ULK3 (UniProt Q6PHR2); test: as above
[16] = target: YES1 (UniProt P07947); test: as above
[17] = target: ZAK (UniProt Q9NYL2); test: as above
[18] = target: ZAP70 (UniProt P43403); test: as above
[19] = target: CDK4 (UniProt P11802); test: number of time points (of 4; 2 h point missing) at which kinase-Nluc abundance scored as decreased, DMSO-normalised (count); higher = more persistent destabilization
[20] = target: CDK7 (UniProt P50613); test: as above

CC(C)Nc1cc(-c2c[nH]c(C(=O)N[C@H](CO)c3cccc(Cl)c3)c2)c(Cl)cn1 [Ulixertinib]
inactive: kinase-Nluc reporter destabilization hit call ([1]; 10 µM) 0 | kinase-Nluc reporter destabilization hit call ([2]; 10 µM) 0 | kinase-Nluc reporter destabilization hit call ([3]; 10 µM) 0 | kinase-Nluc reporter destabilization hit call ([4]; 10 µM) 0 | kinase-Nluc reporter destabilization hit call ([5]; 10 µM) 0 | kinase-Nluc reporter destabilization hit call ([6]; 10 µM) 0 | kinase-Nluc reporter destabilization hit call ([7]; 10 µM) 0 | kinase-Nluc reporter destabilization hit call ([8]; 10 µM) 0 | kinase-Nluc reporter destabilization hit call ([9]; 10 µM) 0 | kinase-Nluc reporter destabilization hit call ([10]; 10 µM) 0 | kinase-Nluc reporter destabilization hit call ([11]; 10 µM) 0 | kinase-Nluc reporter destabilization hit call ([12]; 10 µM) 0 | kinase-Nluc reporter destabilization hit call ([13]; 10 µM) 0 | kinase-Nluc reporter destabilization hit call ([14]; 10 µM) 0 | kinase-Nluc reporter destabilization hit call ([15]; 10 µM) 0 | kinase-Nluc reporter destabilization hit call ([16]; 10 µM) 0 | kinase-Nluc reporter destabilization hit call ([17]; 10 µM) 0 | kinase-Nluc reporter destabilization hit call ([18]; 10 µM) 0
0: number of time points ([19]; 10 µM) | number of time points ([20]; 10 µM)

CN(C)C/C=C/C(=O)Nc1cc2c(Nc3ccc(F)c(Cl)c3)ncnc2cc1O[C@H]1CCOC1 [Afatinib]
inactive: kinase-Nluc reporter destabilization hit call ([1]; 10 µM) 0 | kinase-Nluc reporter destabilization hit call ([2]; 10 µM) 0 | kinase-Nluc reporter destabilization hit call ([3]; 10 µM) 0 | kinase-Nluc reporter destabilization hit call ([4]; 10 µM) 0 | kinase-Nluc reporter destabilization hit call ([5]; 10 µM) 0 | kinase-Nluc reporter destabilization hit call ([6]; 10 µM) 0 | kinase-Nluc reporter destabilization hit call ([7]; 10 µM) 0 | kinase-Nluc reporter destabilization hit call ([8]; 10 µM) 0 | kinase-Nluc reporter destabilization hit call ([9]; 10 µM) 0 | kinase-Nluc reporter destabilization hit call ([10]; 10 µM) 0 | kinase-Nluc reporter destabilization hit call ([11]; 10 µM) 0 | kinase-Nluc reporter destabilization hit call ([12]; 10 µM) 0 | kinase-Nluc reporter destabilization hit call ([13]; 10 µM) 0 | kinase-Nluc reporter destabilization hit call ([14]; 10 µM) 0 | kinase-Nluc reporter destabilization hit call ([15]; 10 µM) 0 | kinase-Nluc reporter destabilization hit call ([16]; 10 µM) 0 | kinase-Nluc reporter destabilization hit call ([17]; 10 µM) 0 | kinase-Nluc reporter destabilization hit call ([18]; 10 µM) 0
0: number of time points ([19]; 10 µM) | number of time points ([20]; 10 µM)

Nc1ncnc2c1c(-c1ccc(Oc3ccccc3)cc1)nn2[C@@H]1CCCNC1
active: kinase-Nluc reporter destabilization hit call ([4]; 2.5 µM) 1
inactive: kinase-Nluc reporter destabilization hit call ([1]; 2.5 µM) 0 | kinase-Nluc reporter destabilization hit call ([2]; 2.5 µM) 0 | kinase-Nluc reporter destabilization hit call ([3]; 2.5 µM) 0 | kinase-Nluc reporter destabilization hit call ([5]; 2.5 µM) 0 | kinase-Nluc reporter destabilization hit call ([6]; 2.5 µM) 0 | kinase-Nluc reporter destabilization hit call ([7]; 2.5 µM) 0 | kinase-Nluc reporter destabilization hit call ([8]; 2.5 µM) 0 | kinase-Nluc reporter destabilization hit call ([9]; 2.5 µM) 0 | kinase-Nluc reporter destabilization hit call ([10]; 2.5 µM) 0 | kinase-Nluc reporter destabilization hit call ([11]; 2.5 µM) 0 | kinase-Nluc reporter destabilization hit call ([12]; 2.5 µM) 0 | kinase-Nluc reporter destabilization hit call ([13]; 2.5 µM) 0 | kinase-Nluc reporter destabilization hit call ([14]; 2.5 µM) 0 | kinase-Nluc reporter destabilization hit call ([15]; 2.5 µM) 0 | kinase-Nluc reporter destabilization hit call ([16]; 2.5 µM) 0 | kinase-Nluc reporter destabilization hit call ([17]; 2.5 µM) 0 | kinase-Nluc reporter destabilization hit call ([18]; 2.5 µM) 0
0: number of time points ([19]; 2.5 µM) | number of time points ([20]; 2.5 µM)

Cc1[nH]c(/C=C2\C(=O)Nc3ccc(F)cc32)c(C)c1C(=O)NCCN1CCCC1 [Toceranib (phosphate)]
inactive: kinase-Nluc reporter destabilization hit call ([1]; 2 µM) 0 | kinase-Nluc reporter destabilization hit call ([2]; 2 µM) 0 | kinase-Nluc reporter destabilization hit call ([3]; 2 µM) 0 | kinase-Nluc reporter destabilization hit call ([4]; 2 µM) 0 | kinase-Nluc reporter destabilization hit call ([5]; 2 µM) 0 | kinase-Nluc reporter destabilization hit call ([6]; 2 µM) 0 | kinase-Nluc reporter destabilization hit call ([7]; 2 µM) 0 | kinase-Nluc reporter destabilization hit call ([8]; 2 µM) 0 | kinase-Nluc reporter destabilization hit call ([9]; 2 µM) 0 | kinase-Nluc reporter destabilization hit call ([10]; 2 µM) 0 | kinase-Nluc reporter destabilization hit call ([11]; 2 µM) 0 | kinase-Nluc reporter destabilization hit call ([12]; 2 µM) 0 | kinase-Nluc reporter destabilization hit call ([13]; 2 µM) 0 | kinase-Nluc reporter destabilization hit call ([14]; 2 µM) 0 | kinase-Nluc reporter destabilization hit call ([15]; 2 µM) 0 | kinase-Nluc reporter destabilization hit call ([16]; 2 µM) 0 | kinase-Nluc reporter destabilization hit call ([17]; 2 µM) 0 | kinase-Nluc reporter destabilization hit call ([18]; 2 µM) 0
0: number of time points ([19]; 2 µM) | number of time points ([20]; 2 µM)

COc1cc2c(cc1OC)-c1c(C)c3ccc(OC)c(OC)c3c[n+]1CC2 [Dehydrocorydaline]
0: number of time points ([19]; 10 µM) | number of time points ([20]; 10 µM)
inactive: kinase-Nluc reporter destabilization hit call ([1]; 10 µM) 0 | kinase-Nluc reporter destabilization hit call ([2]; 10 µM) 0 | kinase-Nluc reporter destabilization hit call ([3]; 10 µM) 0 | kinase-Nluc reporter destabilization hit call ([4]; 10 µM) 0 | kinase-Nluc reporter destabilization hit call ([5]; 10 µM) 0 | kinase-Nluc reporter destabilization hit call ([6]; 10 µM) 0 | kinase-Nluc reporter destabilization hit call ([7]; 10 µM) 0 | kinase-Nluc reporter destabilization hit call ([8]; 10 µM) 0 | kinase-Nluc reporter destabilization hit call ([9]; 10 µM) 0 | kinase-Nluc reporter destabilization hit call ([10]; 10 µM) 0 | kinase-Nluc reporter destabilization hit call ([11]; 10 µM) 0 | kinase-Nluc reporter destabilization hit call ([12]; 10 µM) 0 | kinase-Nluc reporter destabilization hit call ([13]; 10 µM) 0 | kinase-Nluc reporter destabilization hit call ([14]; 10 µM) 0 | kinase-Nluc reporter destabilization hit call ([15]; 10 µM) 0 | kinase-Nluc reporter destabilization hit call ([16]; 10 µM) 0 | kinase-Nluc reporter destabilization hit call ([17]; 10 µM) 0 | kinase-Nluc reporter destabilization hit call ([18]; 10 µM) 0
